From the supplement of paper PMC11348887
Counter-ions that a name gives are not always drawn. Some of the results follow. Most entries show no effect beyond the scatter of the controls.

system: hPSC-derived cortical neurons (WA09); assay: nucleus area z-score vs screen plate; higher = larger nuclei (more mature); settings: 5 µM; treatment: days 7-14 after plating, readout day 21

Compound | nucleus area z-score
CCCc1cc(C(N)=S)ccn1 [Protionamide] | 0.707
C=CCNC(N)=S [Allylthiourea] | -0.466
CC[C@H](C)C(=O)O[C@H]1C[C@@H](C)C=C2C=C[C@H](C)[C@H](CC[C@@H]3C[C@@H](O)CC(=O)O3)[C@H]21 [Lovastatin] | -1.8
COc1cc2c(cc1O)CC[C@@H]1[C@@H]2CC[C@]2(C)[C@@H](O)CC[C@@H]12 [2-Methoxyestradiol (2-MeOE2)] | -2.93
c1cncc(CN2CCC(n3ncc4c(N5CCOCC5)nc(-c5ccc6[nH]ccc6c5)nc43)CC2)c1 | -6.6
Clc1ccc(CSC(Cn2ccnc2)c2ccc(Cl)cc2Cl)cc1 (configuration not stated) [Sulconazole Nitrate] | -1.47
Cc1c(OCC(F)(F)F)ccnc1C[S@@+]([O-])c1nc2ccccc2[nH]1 [Dexlansoprazole] | -0.902
Cc1ccccc1C(=O)Nc1ccc(C(=O)N2CCCC(O)c3cc(Cl)ccc32)c(C)c1 (configuration not stated) [Tolvaptan] | 3.02
C[N+](C)(C)CCOC(=O)CCC(=O)OCC[N+](C)(C)C [Succinylcholine Chloride Dihydrate] | -0.0246
NC(=O)c1ccc(-c2nc(-c3ccccn3)c(-c3ccc4c(c3)OCO4)[nH]2)cc1 | 4.08
Nc1ccn([C@@H]2O[C@H](CO)[C@@H](O)C2(F)F)c(=O)n1 [Gemcitabine] | -1.68
CC[C@@H]1/C=C(\C)C[C@H](C)C[C@H](OC)[C@H]2O[C@@](O)(C(=O)C(=O)N3CCCC[C@H]3C(=O)O[C@H](/C(C)=C/[C@@H]3CC[C@H](Cl)[C@H](OC)C3)[C@H](C)[C@@H](O)CC1=O)[C@H](C)C[C@@H]2OC [Pimecrolimus] | -0.832
NCc1c[nH]c(=S)n1[C@@H]1CCc2c(F)cc(F)cc2C1 [(R)-Nepicastat HCl] | 0.643

system: hPSC-derived cortical neurons (WA09); assay: total neurite length per nucleus (MAP2) z-score; higher = more neurite growth; settings: 5 µM; treatment: days 7-14 after plating, readout day 21

Compound | total neurite length per nucleus (z-score)
CC(C)NC[C@H](O)COc1ccc(CCOCC2CC2)cc1 [Levobetaxolol HCl] | -0.582
O=C(NC1CCN(CCCCC2(C(=O)NCC(F)(F)F)c3ccccc3-c3ccccc32)CC1)c1ccccc1-c1ccc(C(F)(F)F)cc1 [Lomitapide] | -6.28
COc1cc(C(C)=O)ccc1O [Apocynin] | 0.343
c1ccc2c(Oc3nc(Nc4ccc(N5CCOCC5)cc4)c4ncn(C5CCCCC5)c4n3)cccc2c1 [Purmorphamine] | -0.375
COc1cccc(Nc2c(C(N)=O)cnc3c(C)cc(S(=O)(=O)c4cccc(C(=O)N(C)C)c4)cc23)c1 | 0.652
Cc1ncc(-c2ccnc(Nc3ccc(S(C)(=O)=O)cc3)n2)n1C(C)C | -2.53
CCC(C)(Oc1ccc(C2(c3ccc(OC(C)(CC)C(=O)O)cc3)CCCCC2)cc1)C(=O)O (configuration not stated) [Clinofibrate] | 0.888
C[C@H](CCC(=O)O)[C@H]1CC[C@H]2[C@@H]3C(=O)C[C@@H]4CC(=O)CC[C@]4(C)[C@H]3CC(=O)[C@]12C [Dehydrocholic acid] | -0.179
CC1=C(/C=C/C(C)=C/C=C/C(C)=C\C(=O)O)C(C)(C)CCC1 [Isotretinoin] | -0.239
Cc1ccsc1C(=CCCN1CCC[C@@H](C(=O)O)C1)c1sccc1C [Tiagabine hydrochloride] | -0.28
C#C[C@]1(O)CC[C@H]2[C@@H]3CCc4cc(O)ccc4[C@H]3CC[C@@]21C [Ethinyl Estradiol] | 0.512
O=C(Nc1c(Cl)cncc1Cl)c1ccc(OC(F)F)c(OCC2CC2)c1 [Roflumilast] | -1.06
O=C(/C=C/c1cccc(S(=O)(=O)Nc2ccccc2)c1)NO [Belinostat (PXD101)] | -3.69
O=C1[C@H](Cc2ccc(O)cc2)N2C(=O)CCN(C(=O)NCc3ccccc3)[C@H]2CN1Cc1cccc2ccccc12 | -0.147
Cn1c(=O)c2c(ncn2CC2OCCO2)n(C)c1=O [Doxofylline] | 0.495
OC[C@@H](O)[C@@H](O)[C@@H](O)CO [Ribitol] | 0.293
CNC(=O)c1ccc2cc([C@@]3(O)CCn4cncc43)ccc2c1 [TAK-700 (Orteronel)] | -0.233
Cc1cc(-c2ccc(CC(=O)Nc3ccc(-c4cccnc4)cc3)cc2)ccn1 | 0.00131
Cc1ccc(Nc2nccc(N(C)c3ccc4c(C)n(C)nc4c3)n2)cc1S(N)(=O)=O [Pazopanib] | 0.725
CC(C)C[C@H](NC(=O)[C@H](Cc1ccccc1)C[C@@H](O)[C@H](Cc1ccccc1)NC(=O)OC(C)(C)C)C(=O)N[C@@H](Cc1ccccc1)C(N)=O | 1.33

Compound | total neurite length per nucleus (z-score)
Nc1nc(OCc2cc(Br)cs2)c2[nH]cnc2n1 [Lomeguatrib] | -0.195
O=C(O)CCCCC(CCSCc1ccccc1)SCc1ccccc1 (configuration not stated) | 0.152
Cc1ccc(Sc2ccccc2N2CCNCC2)c(C)c1 | -0.779
CS(=O)(=O)c1ccc([C@@H](O)[C@@H](CF)NC(=O)C(Cl)Cl)cc1 [Florfenicol] | -0.171
Cc1c(-c2ccnn2C)cc(C(=O)NCc2ccc(S(C)(=O)=O)cn2)c(=O)n1-c1cccc(C(F)(F)F)c1 [Alvelestat (AZD9668)] | 1.17
Cc1onc(-c2ccccc2Cl)c1C(=O)N[C@@H]1C(=O)N2[C@@H]1SC(C)(C)[C@@H]2C(=O)O [Cloxacillin Sodium] | 0.303
CCCc1cc(C(N)=S)ccn1 [Protionamide] | -0.278
C=CCNC(N)=S [Allylthiourea] | 0.301
CC[C@H](C)C(=O)O[C@H]1C[C@@H](C)C=C2C=C[C@H](C)[C@H](CC[C@@H]3C[C@@H](O)CC(=O)O3)[C@H]21 [Lovastatin] | 0.0302
COc1cc2c(cc1O)CC[C@@H]1[C@@H]2CC[C@]2(C)[C@@H](O)CC[C@@H]12 [2-Methoxyestradiol (2-MeOE2)] | -0.21
c1cncc(CN2CCC(n3ncc4c(N5CCOCC5)nc(-c5ccc6[nH]ccc6c5)nc43)CC2)c1 | -1.68
Clc1ccc(CSC(Cn2ccnc2)c2ccc(Cl)cc2Cl)cc1 (configuration not stated) [Sulconazole Nitrate] | -1.48
Cc1c(OCC(F)(F)F)ccnc1C[S@@+]([O-])c1nc2ccccc2[nH]1 [Dexlansoprazole] | 0.985
Cc1ccccc1C(=O)Nc1ccc(C(=O)N2CCCC(O)c3cc(Cl)ccc32)c(C)c1 (configuration not stated) [Tolvaptan] | -1.11
C[N+](C)(C)CCOC(=O)CCC(=O)OCC[N+](C)(C)C [Succinylcholine Chloride Dihydrate] | 0.887
NC(=O)c1ccc(-c2nc(-c3ccccn3)c(-c3ccc4c(c3)OCO4)[nH]2)cc1 | -2.42
Nc1ccn([C@@H]2O[C@H](CO)[C@@H](O)C2(F)F)c(=O)n1 [Gemcitabine] | 0.719
CC[C@@H]1/C=C(\C)C[C@H](C)C[C@H](OC)[C@H]2O[C@@](O)(C(=O)C(=O)N3CCCC[C@H]3C(=O)O[C@H](/C(C)=C/[C@@H]3CC[C@H](Cl)[C@H](OC)C3)[C@H](C)[C@@H](O)CC1=O)[C@H](C)C[C@@H]2OC [Pimecrolimus] | -0.58
NCc1c[nH]c(=S)n1[C@@H]1CCc2c(F)cc(F)cc2C1 [(R)-Nepicastat HCl] | 0.475

Individual results from the list.
total neurite length per nucleus (z-score) with `Nc1ccn([C@@H]2O[C@H](CO)[C@@H](O)C2(F)F)c(=O)n1` [Gemcitabine] is entered as 0.719
total neurite length per nucleus (z-score) with `Cc1ccc(Sc2ccccc2N2CCNCC2)c(C)c1` is entered as -0.779
total neurite length per nucleus (z-score) with `c1cncc(CN2CCC(n3ncc4c(N5CCOCC5)nc(-c5ccc6[nH]ccc6c5)nc43)CC2)c1` is entered as -1.68
